From publication doi:10.1101/2021.03.07.432812
No constants are given. Whether binding was seen depends on the method and setting. In cells and extracts the contact can be indirect. Some entries that bind do so weakly or less than the wild type.

Amino acid sequences for entries named in this document (tags omitted).
UniProt Q9BUA3: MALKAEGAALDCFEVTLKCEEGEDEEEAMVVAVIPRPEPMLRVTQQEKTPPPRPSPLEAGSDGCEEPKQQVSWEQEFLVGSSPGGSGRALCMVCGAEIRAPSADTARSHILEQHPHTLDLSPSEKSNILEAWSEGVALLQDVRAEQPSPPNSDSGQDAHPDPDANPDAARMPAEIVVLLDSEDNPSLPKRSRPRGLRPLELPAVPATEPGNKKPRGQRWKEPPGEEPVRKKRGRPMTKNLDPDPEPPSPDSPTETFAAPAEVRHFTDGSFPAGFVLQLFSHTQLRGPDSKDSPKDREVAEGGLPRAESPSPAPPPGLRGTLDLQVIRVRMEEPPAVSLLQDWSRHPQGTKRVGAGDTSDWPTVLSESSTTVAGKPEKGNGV

Biological target: Flag-SPIN•DOC wild type (UniProt Q9BUA3)
Experiment: co-IP

GFP-SPIN•DOC wild type (from UniProt Q9BUA3 1-381)
binding: binds
